We go through three molecules from publication PMC3669415.

The chains behind the UniProt entries cited, without tags or fusion partners.
UniProt P61077: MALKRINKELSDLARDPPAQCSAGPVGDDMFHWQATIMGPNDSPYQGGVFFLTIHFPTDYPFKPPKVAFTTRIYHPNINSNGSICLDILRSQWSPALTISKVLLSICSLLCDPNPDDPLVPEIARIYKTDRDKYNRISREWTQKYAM
UniProt O14746: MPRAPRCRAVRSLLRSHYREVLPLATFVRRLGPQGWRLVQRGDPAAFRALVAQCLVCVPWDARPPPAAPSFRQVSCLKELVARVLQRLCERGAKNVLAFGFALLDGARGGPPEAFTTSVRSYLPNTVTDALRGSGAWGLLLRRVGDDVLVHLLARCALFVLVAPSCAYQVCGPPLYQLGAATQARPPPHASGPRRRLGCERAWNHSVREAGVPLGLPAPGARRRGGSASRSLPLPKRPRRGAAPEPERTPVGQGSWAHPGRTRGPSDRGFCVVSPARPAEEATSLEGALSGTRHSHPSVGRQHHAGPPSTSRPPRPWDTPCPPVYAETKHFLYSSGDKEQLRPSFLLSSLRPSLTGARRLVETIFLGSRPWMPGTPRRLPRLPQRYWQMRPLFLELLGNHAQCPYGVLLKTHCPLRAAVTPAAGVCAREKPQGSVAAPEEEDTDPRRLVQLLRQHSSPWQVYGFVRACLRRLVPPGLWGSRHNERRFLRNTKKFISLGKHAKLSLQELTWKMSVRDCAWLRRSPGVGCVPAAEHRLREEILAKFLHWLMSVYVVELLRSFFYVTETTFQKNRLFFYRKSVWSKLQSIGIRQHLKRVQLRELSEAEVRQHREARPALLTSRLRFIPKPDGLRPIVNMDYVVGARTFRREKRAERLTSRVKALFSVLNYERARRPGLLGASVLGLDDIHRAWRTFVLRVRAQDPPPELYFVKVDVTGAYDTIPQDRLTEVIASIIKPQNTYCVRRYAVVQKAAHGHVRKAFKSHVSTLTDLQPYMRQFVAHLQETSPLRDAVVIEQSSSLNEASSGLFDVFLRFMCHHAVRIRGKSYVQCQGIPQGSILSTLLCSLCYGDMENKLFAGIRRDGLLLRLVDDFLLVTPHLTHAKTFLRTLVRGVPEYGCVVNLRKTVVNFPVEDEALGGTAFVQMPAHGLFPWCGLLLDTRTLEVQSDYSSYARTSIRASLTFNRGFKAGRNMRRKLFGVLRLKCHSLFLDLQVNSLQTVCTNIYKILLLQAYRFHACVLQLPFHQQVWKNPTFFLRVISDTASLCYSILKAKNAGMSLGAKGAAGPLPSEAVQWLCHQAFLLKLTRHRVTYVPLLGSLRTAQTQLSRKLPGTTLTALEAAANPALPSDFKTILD

Assay [1] addresses FLAG-tagged UBE2D3 (human) (UniProt P61077). In words: co-IP; HEK293T co-transfected with HA-hTERT and Flag-UBE2D3, lysed 24 hr after transfection; precipitated with anti-FLAG or anti-UBE2D3 and protein-A agarose overnight at 4°C, washed with immunoprecipitation buffer and 500 mM NaCl; blotted with anti-HA or anti-hTERT.
Assay [2] has as its target human telomerase reverse transcriptase (hTERT), two-hybrid bait pGBKT-hTERT (human) (UniProt O14746). Nature of the assay: two-hybrid; Matchmaker Gold library screen: bait pGBKT-hTERT in Gold yeast mated with the Hep2R cDNA library in pGADT7; blue colonies on DDO/X/A patched onto QDO/X/A, 30°C.

No constants are given. Whether binding was seen depends on the method and setting. For part of these data: Binding seen in cells or lysates may run through a third protein. Some results given as binding are weak or reduced against the parent protein; the word gives no strength.

On to “HA-tagged hTERT (from UniProt O14746 1-1132) (enzyme)”, for which the binding result in assay [1] was “binds”.

B1: chromosome 19 open reading frame 40 (C19orf40) (protein, UniProt Q9BTP7 1-215)
chain: MEKNPPDDTGPVHVPLGHIVANEKWRGSQLAQEMQGKIKLIFEDGLTPDFYLSNRCCILYVTEADLVAGNGYRKRLVRVRNSNNLKGIVVVEKTRMSEQYFPALQKFTVLDLGMVLLPVASQMEASCLVIQLVQEQTKEPSKNPLLGKKRALLLSEPSLLRTVQQIPGVGKVKAPLLLQKFPSIQQLSNASIGELEQVVGQAVAQQIHAFFTQPR
As for B1, the binding entry in assay [2] is given as “binds”.

B2: chromosome 18 open reading frame 55 (C18orf55) (protein, UniProt Q9BVV7 1-248)
chain: MICTFLRAVQYTEKLHRSSAKRLLLPYIVLNKACLKTEPSLRCGLQYQKKTLRPRCILGVTQKTIWTQGPSPRKAKEDGSKQVSVHRSQRGGTAVPTSQKVKEAGRDFTYLIVVLFGISITGGLFYTIFKELFSSSSPSKIYGRALEKCRSHPEVIGVFGESVKGYGEVTRRGRRQHVRFTEYVKDGLKHTCVKFYIEGSEPGKQGTVYAQVKENPGSGEYDFRYIFVEIESYPRRTIIIEDNRSQDD
For the molecule B2, the binding entry in assay [2] is listed as “binds”.
